The record followed here is publication PMC5313200.

No constants are given. Whether binding was seen depends on the method and setting. Binding seen in cells or lysates may run through a third protein. Some entries that bind do so weakly or less than the wild type.

The assay deals with T1, viperin, endogenous in RAW 264.7 cells (mouse (endogenous in RAW 264.7)) (UniProt Q8CBB9).
T1 sequence: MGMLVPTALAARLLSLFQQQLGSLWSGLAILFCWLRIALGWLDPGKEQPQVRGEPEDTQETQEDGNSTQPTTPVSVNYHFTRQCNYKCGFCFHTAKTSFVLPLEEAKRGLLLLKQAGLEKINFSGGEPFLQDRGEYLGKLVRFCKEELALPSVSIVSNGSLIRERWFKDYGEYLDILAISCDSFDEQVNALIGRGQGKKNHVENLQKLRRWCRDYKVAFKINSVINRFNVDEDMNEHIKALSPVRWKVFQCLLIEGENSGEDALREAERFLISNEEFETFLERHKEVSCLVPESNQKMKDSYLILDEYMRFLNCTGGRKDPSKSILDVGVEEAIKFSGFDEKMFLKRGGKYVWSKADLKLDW
As to the kind of experiment: co-IP; endogenous proteins of RAW 264.7 cells stimulated with IFN (10^3 units/ml) or transfected with poly(I:C) (1 μg/ml) for 8 h, or unstimulated; CHAPS lysates; anti-viperin or anti-MAVS beads; western blot. (Immunoblotting shows a protein as a band on a membrane.)

B1: mitochondrial antiviral signaling protein (MAVS), endogenous in RAW 264.7 cells (protein, UniProt Q8VCF0 1-503)
chain: MTFAEDKTYKYIRDNHSKFCCVDVLEILPYLSCLTASDQDRLRASYRQIGNRDTLWGLFNNLQRRPGWVEVFIRALQICELPGLADQVTRVYQSYLPPGTSLRSLEPLQLPDFPAAVSGPSAFAPGHNIPDHGLRETPSCPKPVQDTQPPESPVENSEQLLQTNSGAVARMSGGSLIPSPNQQALSPQPSREHQEQEPELGGAHAANVASVPIATYGPVSPTVSFQPLPRTALRTNLLSGVTVSALSADTSLSSSSTGSAFAKGAGDQAKAATCFSTTLTNSVTTSSVPSPRLVPVKTMSSKLPLSSKSTAAMTSTVLTNTAPSKLPSNSVYAGTVPSRVPASVAKAPANTIPPERNSKQAKETPEGPATKVTTGGNQTGPNSSIRSLHSGPEMSKPGVLVSQLDEPFSACSVDLAISPSSSLVSEPNHGPEENEYSSFRIQVDESPSADLLGSPEPLATQQPQEEEEHCASSMPWAKWLGATSALLAVFLAVMLYRSRRLAQ
In the case of B1, the binding entry was “binds”.
